Test results as given in US20090133318A1, “Anthranilamide insecticides” (priority 2004, published 2009).
Some of these results come from one statement about several compounds together.

What follows are compounds tested on fall armyworm (Spodoptera frugiperda) (assay: Test B: control of fall armyworm, foliar spray on corn plant). Conditions: sprayed at 10 ppm, corn (maize) plant, visually rated as in Test A.
Format: in vivo

| Compound | feeding damage (excellent levels of plant protection) |
| --- | --- |
| Cc1cc(C#N)cc(C(=O)NCC2CC2)c1NC(=O)c1cc(C(F)(F)F)nn1-c1ccccc1F [Compound 22] | ≤ 20% |
| Cc1cc(Cl)cc(C(=O)NCC2CC2)c1NC(=O)c1cc(C(F)(F)F)nn1-c1ccccc1Cl [Compound 27] | ≤ 20% |
| O=C(NCC1CC1)c1cc(Cl)cc(Cl)c1NC(=O)c1cc(C(F)(F)F)nn1-c1ccccc1Cl [Compound 28] | ≤ 20% |
| Cc1cc(Cl)cc(C(=O)NC(C)C2CC2)c1NC(=O)c1cc(Br)nn1-c1ccccc1Cl (racemic) [Compound 31] | ≤ 20% |
| O=C(NCC1CC1)c1cc(Cl)cc(Cl)c1NC(=O)c1cc(Br)nn1-c1ccccc1Cl [Compound 25] | ≤ 20% |
| Cc1cc(C#N)cc(C(=O)NCC2CC2)c1NC(=O)c1cc(Br)nn1-c1ccccc1Cl [Compound 23] | ≤ 20% |
| Cc1cc(C#N)cc(C(=O)NCC2CC2)c1NC(=O)c1cc(C(F)(F)F)nn1-c1ccccc1Cl [Compound 26] | ≤ 20% |
| Cc1cc(C#N)cc(C(=O)NC(C)C2CC2)c1NC(=O)c1cc(C(F)(F)F)nn1-c1ccccc1Cl (racemic) [Compound 30] | ≤ 20% |
